The test system of this assay is L1210 leukemia ip in BDF1 mice, survival T/C. As to the kind of experiment: NCI In Vivo Anticancer Drug Screen. Data for tumor model L1210 Leukemia (intraperitoneal) in B6D2F1 (BDF1) mice. The conditions noted are these: T/C endpoint: mean survival time, higher T/C = longer survival.
The mark [1] stands for this setting: dose: 400.0 mg/kg/injection, schedule: Q01DX001 (ip), vehicle: carboxymethylcellulose (CMC).
Where [2] appears, read: dose: 200.0 mg/kg/injection, schedule: Q01DX009 (ip), vehicle: saline with Tween-80.
Setting [3] is: dose: 400.0 mg/kg/injection, schedule: Q01DX001 (ip), vehicle: saline.
Setting [4] is: dose: 400.0 mg/kg/injection, schedule: Q04DX003 (ip), vehicle: saline.
The mark [5] stands for this setting: dose: 200.0 mg/kg/injection, schedule: Q04DX003 (ip), vehicle: Klucel (hydroxypropylcellulose) (HPC).
Setting [6] is: dose: 400.0 mg/kg/injection, schedule: Q04DX003 (ip), vehicle: Klucel (hydroxypropylcellulose) (HPC).
The mark [7] stands for this setting: dose: 400.0 mg/kg/injection, schedule: Q01DX009 (ip), vehicle: Klucel (hydroxypropylcellulose) (HPC).

The list shows only some results of the screen, not a fair sample: it is rich in T/C values a quarter to a half above the control, in often repeated tests (any T/C) and in doses without a T/C. Further doses and runs are listed elsewhere. T/C gives the treated animals as a percentage of the vehicle group. Some entries give survivors of the animals treated and no T/C: the source holds a T/C of zero for them, seemingly a mark for toxic or unscored doses. Some doses without a T/C left all or most animals alive at the check, yet need not have been tolerated: the source hardly ever lists a survival T/C far under the control, and the zero likely stands for such cases as well. Survivors were counted at the toxicity check, usually on the fifth day, unless a day is given; later deaths do not show. Schedules are NCI's codes, taken here to give the interval after Q, in days (D) or hours (H), and the number of doses after X. Some schedules carry Z or #; the key to these is not given. Some entries were tested several times; the results are listed from low to high. For survival time, this PubChem deposit counts one and a half times the control or more as active, and values a quarter to a half above the control carry no call in these data; other NCI protocols may use other cut-offs.

Take `CCOC(=O)c1cnc(NN)nc1Nc1cc(Cl)cc(Cl)c1`: the survivor count reads like this: (dose: 100.0 mg/kg/injection, schedule: Q04DX003 (ip), vehicle: saline with Tween-80) 6 of 6; (dose: 400.0 mg/kg/injection, schedule: Q04DX003 (ip), vehicle: saline with Tween-80) 3 of 6.

For `CC1=C(C)C(=O)C=CC1=O`, the survivor count by setting is: (dose: 100.0 mg/kg/injection, schedule: Q01DX001 (ip), vehicle: carboxymethylcellulose (CMC)) 0 of 4; (dose: 200.0 mg/kg/injection, schedule: Q01DX001 (ip), vehicle: carboxymethylcellulose (CMC)) 0 of 4; under setting [1], 0 of 4.

For the compound `C/C(=N\N=C(N)N)c1ccccc1`, the survivor count (dose: 60.0 mg/kg/injection, schedule: Q01DX Z (oral), vehicle: carboxymethylcellulose (CMC)) is on record as 3 of 6 and the survivor count (dose: 120.0 mg/kg/injection, schedule: Q01DX Z (oral), vehicle: carboxymethylcellulose (CMC)) is reported as 0 of 6.

Turning to `COc1ccc(/C=N/NC(=O)CNC(=O)Nc2cccc(Cl)c2)cc1`, the survivor count is given as 3 of 3 (dose: 100.0 mg/kg/injection, schedule: Q01DX009 (ip), vehicle: saline with Tween-80) and 2 of 3 under setting [2].

Regarding `O=c1ccccc(Br)c1O`, the survivor count (dose: 400.0 mg/kg/injection, schedule: Q04DX003 (ip), vehicle: acetone) is listed as 0 of 6.

Consider `CC(=O)OCCN1CCN(CC/C=C2\c3ccccc3Sc3ccc(Cl)cc32)CC1`, for which the T/C is, setting by setting: (dose: 10.0 mg/kg/injection, schedule: Q01DX009 (ip), vehicle: saline) 136 % of control; (dose: 20.0 mg/kg/injection, schedule: Q01DX009 (ip), vehicle: saline) 130 % of control; (dose: 40.0 mg/kg/injection, schedule: Q01DX009 (ip), vehicle: saline) 125 % of control; (dose: 50.0 mg/kg/injection, schedule: Q04DX003 (ip), vehicle: saline) 132 % of control; (dose: 100.0 mg/kg/injection, schedule: Q04DX003 (ip), vehicle: saline) 127 and 129 % of control. The survivor count by setting is: (dose: 25.0 mg/kg/injection, schedule: Q01DX009 (ip), vehicle: saline) 5 of 6; (dose: 50.0 mg/kg/injection, schedule: Q01DX009 (ip), vehicle: saline) 1 of 6; (dose: 80.0 mg/kg/injection, schedule: Q01DX009 (ip), vehicle: saline) 3 of 6 and 6 of 6; (dose: 100.0 mg/kg/injection, schedule: Q01DX009 (ip), vehicle: saline) 0 of 6; (dose: 200.0 mg/kg/injection, schedule: Q04DX003 (ip), vehicle: saline) 3 of 6; under setting [3], 0 of 4. Also, the survivor count under setting [4] is 0 of 6.

Take `N#Cc1ccc(Cl)cc1`: the survivor count (dose: 400.0 mg/kg/injection, schedule: Q04DX002 (ip), vehicle: Klucel (hydroxypropylcellulose) (HPC)) is 0 of 3.

In the case of `CCCCCCCCCCN1CCN2C(=O)N(CC)CCC2C1` (stereo unspecified), the survivor count is given as 4 of 6 (dose: 200.0 mg/kg/injection, schedule: Q01DX001 (ip), vehicle: saline with Tween-80) and 0 of 6 (dose: 400.0 mg/kg/injection, schedule: Q01DX001 (ip), vehicle: saline with Tween-80).

`CC1OC1C(=O)Sc1ccccc1` (stereo unspecified): the survivor count runs as follows: under setting [5], 4 of 6; under setting [6], 0 of 6.

`COc1cc(N2CCOCC2)ccc1[N+](=O)[O-]`: the survivor count under setting [4] is 3 of 6.

Consider `CC(N)CN(C)C` (stereo unspecified), for which the survivor count (dose: 400.0 mg/kg/injection, schedule: Q01DX009 (ip), vehicle: saline) is recorded as 1 of 6.

With `CCC(=O)Nc1cc(C)c(C)cc1C`, the survivor count under setting [7] was 2 of 6.

With `Cc1nc(N)nc(N)c1-c1ccc([N+](=O)[O-])cc1`, the survivor count under setting [1] is given as 1 of 4.

For `O=C1c2cccc3cccc(c23)C(=O)N1CCc1ccccn1`, under setting [7], the survivor count is on record as 1 of 6.

For the compound `O=C(O)C(F)(F)F.[Cu+2]`, the survivor count was 1 of 3 (dose: 50.0 mg/kg/injection, schedule: Q04DX002 (ip), vehicle: saline); 0 of 3 (dose: 100.0 mg/kg/injection, schedule: Q04DX002 (ip), vehicle: saline); 0 of 3 (dose: 200.0 mg/kg/injection, schedule: Q04DX002 (ip), vehicle: saline); 0 of 3 (dose: 400.0 mg/kg/injection, schedule: Q04DX002 (ip), vehicle: saline).

With `CC1CCCN(C(=S)[S-])C1.CC1CCCN(C(=S)[S-])C1.[Zn]` (stereo unspecified), the survivor count by setting is: (dose: 2.5 mg/kg/injection, schedule: Q04DX003 (ip), vehicle: saline) 6 of 6; (dose: 5.0 mg/kg/injection, schedule: Q01DX009 (ip), vehicle: saline) 4 of 6; (dose: 5.0 mg/kg/injection, schedule: Q04DX003 (ip), vehicle: saline) 6 of 6; (dose: 20.0 mg/kg/injection, schedule: Q01DX001 (ip), vehicle: saline) 5 of 6; (dose: 40.0 mg/kg/injection, schedule: Q01DX001 (ip), vehicle: saline) 0 of 6; (dose: 75.0 mg/kg/injection, schedule: Q01DX001 (ip), vehicle: acetone) 0 of 6. Moreover, the survivor count was 1 of 6 (dose: 150.0 mg/kg/injection, schedule: Q01DX001 (ip), vehicle: acetone) and 0 of 6 (dose: 300.0 mg/kg/injection, schedule: Q01DX001 (ip), vehicle: acetone).

In the case of `c1ccc(Cn2ccc3ccncc32)cc1`, the survivor count (dose: 150.0 mg/kg/injection, schedule: Q01DX001 (ip), vehicle: other) is on record as 3 of 6.

Turning to `COc1ccc(N(C)CC(O)CN)cc1` (stereo unspecified), the survivor count under setting [3] was 0 of 6.

On to `CC(C)C[C@H]1C(=O)N2CCC[C@H]2[C@]2(O)O[C@](NC(=O)[C@@H]3C=C4c5cccc6[nH]c(Br)c(c56)C[C@H]4N(C)C3)(C(C)C)C(=O)N12`, for which the survivor count (dose: 400.0 mg/kg/injection, schedule: Q01DX009 (ip), vehicle: saline with Tween-80) was 0 of 6.

As to `Cc1nc2c(NC(=O)CCl)nn(C)c2nc1C`, the survivor count under setting [2] is on record as 3 of 6.

In the case of `COc1cccc(C)c1NC(=O)Nc1c(C)cccc1OC`, the survivor count runs as follows: (dose: 100.0 mg/kg/injection, schedule: Q04DX003 (ip), vehicle: Klucel (hydroxypropylcellulose) (HPC)) 6 of 6; under setting [5], 6 of 6; under setting [6], 6 of 6.

Source of the values: PubChem BioAssay AID248 (DTP/NCI, 2004).
